# Where “and” joins values, the source holds several entries; their conditions need not be identical. Equal values may be shown once. Read-outs that look alike come from different tables or passages of the source.
# Experiments:
# Assay type in all cases: cell-based
# SNU8 cells = assay: Cell proliferation assay (Incucyte growth inhibition)
# Excerpt: (§1) . Per cent confluence relative to a non-treated control was used to evaluate growth inhibition induced by test compounds. […] (https://synergyfinder.fimm.fi).
# NUGC3 cells = assay: as above; conditions: 3 replicates
# Excerpt: as §1
# KYSE30 cells = assay: as above; conditions: 3 replicates
# Excerpt: as §1
# TOV112D cells = assay: as above; conditions: Homo sapiens, read-out: EC50 for growth inhibition
# Excerpt: as §1
# OVCAR3 cells = assay: as above; conditions: 3 replicates
# Excerpt: as §1
# COV362 cells = assay: as above; conditions: 3 replicates
# Excerpt: as §1
# SUM149PT cells = assay: as above
# Excerpt: as §1
# DOTC24510 cells = assay: as above; conditions: Homo sapiens, DoTc2-4510, read-out: EC50 for growth inhibition
# Excerpt: as §1
# HCC1569 cells = assay: Cell proliferation assay (Incucyte growth inhibition, synergy); conditions: 3 replicates
# Excerpt: as §1
smiles,measurement,setting,value
CCc1cnn2c(NCc3ccc[n+]([O-])c3)cc(N3CCCC[C@H]3CCO)nc12 [dinaciclib],EC50,"SNU8 cells; read-out: EC50 for growth inhibition, SNU8; 3 replicates",9 nM
same,EC50,SNU8 cells; read-out: EC50 for growth inhibition; SNU8; 3 replicates,10 nM
same,EC50,"NUGC3 cells; Homo sapiens, NUGC-3, read-out: EC50 for growth inhibition, NUGC3",9 nM
same,EC50,"NUGC3 cells; read-out: EC50 for growth inhibition, NUGC3",10 nM and 8 nM
same,EC50,"KYSE30 cells; Homo sapiens, KYSE-30, read-out: EC50 for growth inhibition, KYSE30",7 nM
same,EC50,"KYSE30 cells; read-out: EC50 for growth inhibition, KYSE30",6 nM
same,EC50,TOV112D cells,8 nM
same,EC50,"OVCAR3 cells; Homo sapiens, OVCAR-3, read-out: EC50 for growth inhibition, OVCAR3",7 nM
same,EC50,"OVCAR3 cells; read-out: EC50 for growth inhibition, OVCAR3",9 nM and 6.6 nM
same,EC50,"COV362 cells; COV362, COV362",11 nM
same,EC50,COV362 cells; COV362,10 nM
same,EC50,"SUM149PT cells; Homo sapiens, read-out: EC50 for growth inhibition, SUM149PT, 3 replicates",7 nM
same,EC50,"SUM149PT cells; read-out: EC50 for growth inhibition, 3 replicates",8 nM
same,EC50,DOTC24510 cells,9 nM
same,EC50,"HCC1569 cells; Homo sapiens, HCC1569, read-out: EC50 for growth inhibition, HCC1569",7 nM
same,EC50,"HCC1569 cells; read-out: EC50 for growth inhibition, HCC1569",6 nM

# From paper PMC9046089, “CCNE1 amplification is synthetic lethal with PKMYT1 kinase inhibition” (Nature, 2022)
